{
  "source": "paper PMC10834661",
  "target": "cyclization domain of cyclic β-1,2-glucan synthase from Thermoanaerobacter italicus (TiCGSCy) (Thermoanaerobacter italicus) (UniProt D3T4C1)",
  "experiment": "SEC; Superdex 200GL column, 0.5 mg/ml (500 μl) loaded, 50 mM Tris-HCl buffer (pH 8.0) containing 150 mM NaCl; molecular weight markers ovalbumin, conalbumin, aldolase, ferritin, thyroglobulin; both purified",
  "note": "No constants are given. Whether binding was seen depends on the method and setting. Where a sequence is shown, tags or fusion partners need not be part of it.",
  "data": [
    {"binder": "cyclization domain of cyclic β-1,2-glucan synthase from Thermoanaerobacter italicus (TiCGSCy) (domain or fragment, UniProt D3T4C1 1005-1591) IISKEKTVSQEEMEELRLVARKTWRYFEDFVTEGQNYLPPDNFQEDPPNGVAERTSPTNIGLYLVSVIGARDLGYITTTEMVERIKKTLDTIEKMEKWNGHLYNWYNTKTLEPLRPYYVSTVDSGNLVGYLITVKEAIGEFLNKPLIDIELAKGLKDTIKMLNVKGITEDIFTTILSKTTLVPSEWEAFLNKIREKLLSSQDDLENIKRLKNIIIALKGEMKEFLVWTEFDESEKEQEIFKRYKEVFEEHSSPKELEKVYKNYLLEIEEVFKKATEEEKALLKSQKDKVAQALEKIKKLEAEIENIKSTIENLVEKTEFRHLYDEKRQLFSIGYNVEEEKLTKSYYDLLASEARQASFIAIAKKEVDKKHWFKLGRMLAIENRYKGLVSWSGTMFEYFMPLLVMRNYQNTLLDETYAFAVRVQKNYAKELGIPWGISESGFYAFDMNLNYQYKAFGVPSLGLKRGLSHDKVVAPYGSLLAIGVDVEGVLQNIRFFKKEGAEGKYGFYEAIDYTPERVPFGKKSAIVKSFMAHHQGMVFVALDNFINNNVMQKRFHKDPRIKAAQILLQEKMPMYLDITREEREGARK", "values": [
      {"measurement": "binding", "result": "no binding (tested: 0.5 mg/ml)"}
    ]}
  ]
}
